Among all 360,000 compounds or so, about 7,500 (2.1%) were called active. Inconclusive results, whose numbers are uncertain, are shown with a selection of clear calls. Calls follow the shape of the dose curve; as a rule, active = well fitted inhibition curve with a large enough effect; inconclusive = small, poorly fitted or top-dose-only effect, or effect the other way; inactive = flat fitted curve, though single readings scatter. Where the call is inconclusive, the potency comes from a doubtful curve fit.
Test: Nrf2 qHTS screen for inhibitors; also: nearly all actives have a fitted effect of over 60% in size
Details: A549 ARE-Fluc reporter, luciferase luminescence, 18-24 h; activity change, negative = inhibition: at 46 µM (top of the series)
Summary of the method: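 Nrf2 function is reported as luminescence of an ARE-controlled luciferase in A549 cells. Compounds were tested at several concentrations, and a CellTiter-Fluor read on the same wells flagged cytotoxicity.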
% is scaled to controls: 0 for no effect and ±100 for the full control effect; potency is read from the fitted curve at half-maximal effect.

Row | Compound | Potency | activity change, negative = inhibition
1 | N/C(=N\OC(=O)CSc1ccccc1)c1ccc([N+](=O)[O-])cc1 | inconclusive: 25.9 µM [activator, partial curve] | –
2 | Cc1ccc2c(CN3CCN(S(=O)(=O)c4ccc5c(c4)OCCO5)CC3)cc(=O)oc2c1C | active: 16.4 µM | –
3 | Cc1c(Cl)cccc1NC(=O)CCCn1nc([N+](=O)[O-])cc1C | inconclusive: 18.4 µM [falling, partial curve, poor fit] | –
4 | O=c1c2oc3ccccc3c2n(Cc2ccc(F)cc2)c(=O)n1Cc1ccco1 | inconclusive: 29.1 µM [activator, single point] | –
5 | Cc1ccc(C(NC(=O)NCCCN2CCOCC2)=C(Cl)Cl)cc1F | inconclusive: 15.8 µM [falling, single point] | –
6 | CCCCn1c(=NC(=O)c2c(-c3c(F)cccc3Cl)noc2C)c(C(=O)OCC)cc2c(=O)n3ccccc3nc21 | – | inactive: -3.87% [at 9.27 µM]
7 | C/C(CC(=O)Nc1ccc(F)cc1)=N\NC(=O)Cc1csc(N)n1 | inconclusive: 0.146 µM [activator, full curve, poor fit] | –
8 | Cc1ccc(-c2noc(-c3ccc(NCc4cccnc4)c([N+](=O)[O-])c3)n2)cc1 | inactive | –
9 | Nc1ccc2ncccc2c1N | inactive | –
10 | COc1ccc(/C=c2/sc3n(c2=O)C(c2ccccc2OC)C2=C(N=3)c3ccccc3CC2)cc1O (stereo unspecified) | inconclusive: 14.6 µM [falling, single point] | –
11 | CCOC(=O)c1nc(Nc2ccc(N3CCC(C)CC3)cc2)c2ccccc2n1 | inconclusive: 16.4 µM [falling, single point] | –
12 | CCOc1cccc(NC(=O)c2sc3nc(-c4ccc(F)cc4)ccc3c2N)c1 | inconclusive: 8.2 µM [falling, partial curve, poor fit] | –
13 | COc1cc(CNCCSc2nnnn2C)ccc1OCc1ccc(C)cc1 | inactive | –
14 | CCSc1ncc(Cl)c(C(=O)N(Cc2ccccc2)c2ccc(OC)cc2)n1 | inconclusive: 18.4 µM [falling, single point] | –
15 | COc1ccc(OC)c(-c2cc(C(=O)Nc3ccc(F)cc3F)no2)c1 | inconclusive: 25.9 µM [falling, single point] | –
16 | CC(=O)Nc1ccc(N(C(=O)Cc2c[nH]c3ccccc23)C(C(=O)NC2CCCCC2)c2ccco2)cc1 (stereo unspecified) | inconclusive: 8.2 µM [falling, partial curve, poor fit] | –
17 | O=C(COCc1cc(-c2cccs2)on1)N1CCN(c2ccc(F)cc2)CC1 | inconclusive: 9.2 µM [falling, partial curve, poor fit] | –
18 | O=C(c1ccccc1)N1CCCC(c2nc3c(nnn3Cc3ccc(F)cc3F)c(=O)[nH]2)C1 (stereo unspecified) | inactive | –
19 | O=C(NCc1ccccc1)c1cccc2c1C(=O)c1ccc(/C=C/c3ccccc3)cc1S2(=O)=O | inconclusive: 32.6 µM [falling, single point] | –
20 | CC(C)(C)NS(=O)(=O)c1ccc(CCC(=O)Nc2ccc3c(c2)OCO3)cc1 | inactive | –
21 | Cc1cc(C)cc(N2CC(c3nnc(NC(=O)c4ccco4)s3)CC2=O)c1 (stereo unspecified) | inactive | –
22 | Cc1ccc(NC(=O)c2ccc(Cl)cc2Cl)c(C(=O)c2ccccc2)c1 | inconclusive: 23.1 µM [falling, single point] | –

Arranged by molecular weight (falling): part of the list above
Row | Compound | Potency | activity change, negative = inhibition
13 | COc1cc(CNCCSc2nnnn2C)ccc1OCc1ccc(C)cc1 | inactive | –
15 | COc1ccc(OC)c(-c2cc(C(=O)Nc3ccc(F)cc3F)no2)c1 | inconclusive: 25.9 µM [falling, single point] | –
1 | N/C(=N\OC(=O)CSc1ccccc1)c1ccc([N+](=O)[O-])cc1 | inconclusive: 25.9 µM [activator, partial curve] | –

Later entries:

Row | Compound | Potency | activity change, negative = inhibition
23 | COc1cc2c(cc1OC)C1(Nc3c-2c(-c2ccccc2)nn3-c2ccccc2)C(=O)Nc2ccccc21 (stereo unspecified) | inconclusive: 16.4 µM [falling, single point] | –
24 | O=S(=O)(NCc1ccc(Cl)cc1)c1ccc2[nH]c3c(c2c1)CCCC3 | inconclusive: 20.6 µM [falling, single point] | –
25 | O=C(C[n+]1ccc(/C=C/c2ccccc2)cc1)c1ccc2c(c1)OCCO2 | inactive | –
26 | Cc1ccc(-c2nc(C=Nc3ccccc3)c(O)o2)cc1 | inconclusive: 9.2 µM [activator, partial curve] | –
27 | C=CCn1c(C)cc(C2=NNC(=NC(C)(C)C)SC2)c1C | inconclusive: 29.1 µM [falling, single point] | –
28 | COc1ccccc1C(=O)NCC(C)(C)CN=C1NS(=O)(=O)c2ccccc21 | inconclusive: 25.9 µM [falling, partial curve, poor fit] | –
29 | CCCCc1ccc(-n2nc3cc(Cl)c(NC(=O)c4ccc(OC)cc4)cc3n2)cc1 | inconclusive: 5.8 µM [activator, partial curve] | –
30 | COc1ccccc1C(CNc1ccc(S(=O)(=O)N2CCCC2)cc1[N+](=O)[O-])N(C)C (stereo unspecified) | inconclusive: 13 µM [falling, partial curve, poor fit] | –
31 | Cc1ccc(C=Nc2ccccc2C(N)=O)cc1 | inconclusive: 3.26 µM [activator, full curve] | –
32 | Cc1nn(-c2ccccc2)c(Cl)c1/C=N/NC(=O)c1[nH]ncc1Br | inconclusive: 4.11 µM [activator, single point] | –
33 | CCOC(=O)c1ccc2nc(C)cc(Nc3ccc(OC(C)C)cc3)c2c1 | inconclusive: 29.1 µM [falling, single point] | –
34 | O=C(NCCN1CCOCC1)c1cccc(S(=O)(=O)N(Cc2ccccc2)c2ccccc2)c1 | inconclusive: 7.31 µM [activator, partial curve, poor fit] | –
35 | O=C(CN1CC[n+]2c(-c3cccs3)csc21)c1ccc(-c2ccccc2)cc1 | inconclusive: 25.9 µM [falling, single point] | –
36 | CC(Sc1nc2c(c(=O)[nH]1)CCCC2)C(=O)Nc1cc(C(F)(F)F)ccc1Cl (stereo unspecified) | inactive | –
37 | Cc1nc2ncccn2c1-c1csc(Nc2ccccc2)n1 | inconclusive: 20.6 µM [falling, single point] | –
38 | Cc1cccc(C(=O)NCCc2nc3ccccc3n2Cc2ccc(Cl)cc2)c1 | inconclusive: 2.06 µM [falling, partial curve, poor fit] | –
39 | Cc1ccc(OC(C)C(=O)N2CCN(CCc3ccncc3)CC2)cc1C (stereo unspecified) | inactive | –
40 | Clc1ccc2oc(-c3ccccc3)nc2c1 | inconclusive: 18.4 µM [activator, partial curve] | –
41 | COc1cccc(-c2nnn(CC(=O)Nc3ccc(C)cc3C)n2)c1OC | inconclusive: 0.0046 µM [falling, full curve, poor fit] | –
42 | N#CC1=C(N)NC(=S)C(C(N)=O)C1c1ccccc1F (stereo unspecified) | inactive | –
43 | C=CCOC(=O)C1=C(C)NC(SCC(=O)Nc2nccs2)=C(C#N)C1c1cccs1 (stereo unspecified) | inconclusive: 29.1 µM [falling, single point] | –
44 | COc1cc(N(C)C)c([N+](=O)[O-])cc1C(=O)NC(C)CNc1ccc([N+](=O)[O-])cc1Cl (stereo unspecified) | inconclusive: 8.2 µM [falling, partial curve, poor fit] | –

Row | Compound | Potency | activity change, negative = inhibition
45 | O=C(CSc1nnc(CNC(=O)c2ccccc2F)o1)Nc1cccc(C(F)(F)F)c1 | inconclusive: 1.84 µM [activator, full curve] | –
46 | COc1ccc(/C=C/c2ccc3cccc(O)c3n2)c(OC)c1OC | inconclusive: 16.4 µM [falling, single point] | –
47 | O=C(Oc1ccc2ccc(O)cc2c1)c1ccccc1Cl | inconclusive: 8.2 µM [falling, partial curve] | –
48 | O=S(=O)(Nc1ccc(F)c(Cl)c1)c1ccc(Br)s1 | inconclusive: 29.1 µM [falling, single point] | –
49 | CCOC(=O)c1ccc(N2C(=O)c3n[nH]c(-c4cccs4)c3C2c2ccc(CC)cc2)cc1 (stereo unspecified) | active: 16.4 µM | –
50 | COc1ccc(CN2CCN(C(=O)c3cccc4ccccc34)CC2)cc1Br | inactive | –
51 | Cc1ccc(NC(=O)c2[nH]cnc2C(=O)NN)cc1 | inconclusive: 23.1 µM [falling, single point] | –
52 | O=C(Nc1ccc2c(c1)OCO2)c1cc(C2CC2)on1 | inconclusive: 1.16 µM [activator, partial curve] | –
53 | COC(=O)c1sccc1NC(=O)COc1ccc(C)cc1 | inconclusive: 18.4 µM [activator, single point] | –
54 | O=C(Cc1ccccc1)NC(CSSCC(NC(=O)Cc1ccccc1)C(=O)O)C(=O)O (stereo unspecified) | inconclusive: 18.4 µM [activator, partial curve] | –
55 | CCOC(=O)c1nc(NNC(C)=O)sc1C | inactive | –
56 | Cc1cc(/C=N/n2c(COc3ccccc3)nc3ccccc3c2=O)c(O)c([N+](=O)[O-])c1 | inconclusive: 10.3 µM [falling, partial curve, poor fit] | –
57 | Brc1cccc(CSc2nnc(-c3ccncc3)o2)c1 | inconclusive: 16.4 µM [falling, single point] | –
58 | O=C(c1ccc2c(=O)n3c(nc2c1)CCCCC3)N1CCCCC1 | inactive | –
59 | O=C(c1ccc(F)c(S(=O)(=O)N2CCOCC2)c1)N1CCc2ccccc21 | inconclusive: 2.91 µM [falling, partial curve] | –
60 | Cc1ccc(S(=O)(=O)N(CC(=O)NCCSCc2ccco2)c2cc(C)ccc2C)cc1 | inconclusive: 25.1 µM [falling, single point] | –
61 | CCCCc1c(C)nc2c(-c3ccc(Cl)cc3)c(C)[nH]n2c1=O | active: 5.8 µM | –
62 | COc1cccc(C(C)=C2SC(=S)NC2=O)c1 | inactive | –
63 | CCOC(=O)c1sc(NN=C(C(=O)OC)C(=O)OC)c(C(=O)OCC)c1C | inactive | –
64 | COc1ccc(/C(C)=N/NC(=O)c2ccccc2OCc2ccccc2)c(OC)c1 | inconclusive: 5.17 µM [activator, partial curve] | –
65 | COc1cc(OC)cc(C(=O)Nc2ccc(-c3nc4cc(C(C)C)ccc4o3)cc2)c1 | active: 14.6 µM | –
66 | Cc1ccc(OCc2cc(C(=O)N(C)Cc3cc(C4CC4)n[nH]3)no2)cc1C | inconclusive: 6.51 µM [activator, full curve, poor fit] | –
